Protein sequences, listed by entry. Tags and fused reporters are not part of them. Lines headed by an entry give the natural chain unless they say otherwise; changes in a name come on top.
UniProt P0ACF8: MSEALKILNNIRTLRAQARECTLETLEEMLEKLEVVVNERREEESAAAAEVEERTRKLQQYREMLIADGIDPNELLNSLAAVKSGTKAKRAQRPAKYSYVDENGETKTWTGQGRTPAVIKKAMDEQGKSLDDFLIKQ

In article PMC4713147:

Biological target: H-NS (Escherichia coli) (UniProt P0ACF8)
Experiment: EMSA
Conditions: apparent Kd, 200 pM DNA; EMSA: H-NS 0-500 nM, 200 pM 32P-labelled DNA, 4% polyacrylamide gel run at 4 C; recombinant protein; label: 5'-32P; probe letters rebuilt from the primers and the genome

GTTTGGCGAACTCTTGGGTAAGGTTAACAATGTCCTTTCAATCAGTTCAGCAAGGTCCAAAGCGTTAACAGCTTCCATGATGAAATAAAAAAAAGCCTGGCAAGGAGCCAGGCTGCACAAAAGAGCGGGTTTGTATTCCGCATCCAATCAATCAAGAAGGAGTATAGCACACAGGTACTGAAGTGAAAAAATGTGATTCGCGATAAACAAAATATCTATCATTGCTCTAATTGATTGCTATAATTGAGCCGCAGTTTTTGTCAACTACGAAGACGTTGCCATTACTTCACTCCTTGACATCATTGGCGGCCATTAGGCCGCCTTTTTTTTGCCATATGAAAACAATCGAACAAAAAATTGAACAGTGCCGCAAGTGGCAGAAGGCAGCCAGAGAACGAGCGATCG (double strand) [ref 5' regulatory region]
Kd: 10 nM

The exact form of at least one protein or probe is not confirmed.
